These are yes or no findings as the source states them, for the method shown. Some binding calls cover weakened binding; strength is not graded here. For part of these data: Where a sequence is shown, tags or fusion partners need not be part of it.
Key:
[1] = biological target: purified recombinant human prostasin (human) (UniProt Q16651); assay: incubation with recombinant prostasin 37 degrees C 60 min, immunoblot (FIG. 8)
[2] = biological target: purified recombinant human prostasin (human) (UniProt Q16651); assay: prostasin-binding assay, western blot (FIG. 4C legend)
[3] = biological target: purified recombinant human prostasin (human) (UniProt Q16651); assay: prostasin-binding assay, SDS-PAGE, western blot (FIG. 4A)
[4] = biological target: purified recombinant human prostasin (human) (UniProt Q16651); assay: complex formation at different pH, western blot (FIG. 6A); complex increased with higher pH
[5] = biological target: purified recombinant human prostasin (human) (UniProt Q16651); assay: prostasin-binding assay, 37 degrees C, SDS-PAGE, western blot with mPBP antibody and prostasin antibody

Sequences of proteins named here, by UniProt entry; tags and fusion partners are left off. Residues count along the entry.
UniProt Q16651, residues 33-322: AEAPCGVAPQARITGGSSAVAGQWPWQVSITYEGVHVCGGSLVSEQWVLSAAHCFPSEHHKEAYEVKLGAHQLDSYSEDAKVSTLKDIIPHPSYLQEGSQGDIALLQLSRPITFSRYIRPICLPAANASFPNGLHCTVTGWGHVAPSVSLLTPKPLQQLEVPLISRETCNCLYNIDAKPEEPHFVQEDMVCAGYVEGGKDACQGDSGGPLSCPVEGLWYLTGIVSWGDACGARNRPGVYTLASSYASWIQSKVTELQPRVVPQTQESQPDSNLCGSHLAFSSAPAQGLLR

binding [1] | binding [2] | binding [3] | binding [4] | binding [5] | Binder
binds | – | – | – | – | GST-hPN-1 (glutathione-S-transferase fused to the N-terminus of mature human protease nexin-1) (protein, UniProt P07093 20-398, looked up, not shown: a dimerising Fc or GST) SHFNPLSLEELGSNTGIQVFNQIVKSRPHDNIVISPHGIASVLGMLQLGADGRTKKQLAMVMRYGVNGVGKILKKINKAIVSKKNKDIVTVANAVFVKNASEIEVPFVTRNKDVFQCEVRNVNFEDPASACDSINAWVKNETRDMIDNLLSPDLIDGVLTRLVLVNAVYFKGLWKSRFQPENTKKRTFVAADGKSYQVPMLAQLSVFRCGSTSAPNDLWYNFIELPYHGESISMLIALPTESSTPLSAIIPHISTKTIDSWMSIMVPKRVQVILPKFTAVAQTDLKEPLKVLGITDMFDSSKANFAKITTGSENLHVSHILQKAKIEVSEDGTKASAATTAILIARSSPPWFIVDRPFLFFIRHNPTGAVLFMGQINKP
– | binds | binds | binds | binds | mouse prostasin-binding protein (mPBP) purified from mouse seminal vesicle fluid (protein, UniProt Q07235 20-397, looked up) SQFNSLSLEELGSNTGIQVFNQIIKSRPHENVVVSPHGIASILGMLQLGADGKTKKQLSTVMRYNVNGVGKVLKKINKAIVSKKNKDIVTVANAVFLRNGFKMEVPFAVRNKDVFQCEVQNVNFQDPASASESINFWVKNETRGMIDNLLSPNLIDGALTRLVLVNAVYFKGLWKSRFQPESTKKRTFVAGDGKSYQVPMLAQLSVFRSGSTRTPNGLWYNFIELPYHGESISMLIALPTESSTPLSAIIPHITTKTIDSWMNTMVPKRMQLVLPKFTAVAQTDLKEPLKALGITEMFEPSKANFTKITRSESLHVSHILQKAKIEVSEDGTKASAATTAILIARSSPPWFIVDRPFLFSIRHNPTGAILFLGQVNKP
binds | – | – | – | – | GST-mPN-1 (glutathione-S-transferase fused to the N-terminus of mature mouse protease nexin-1) (protein, UniProt Q07235 20-397, looked up, not shown: a dimerising Fc or GST) SQFNSLSLEELGSNTGIQVFNQIIKSRPHENVVVSPHGIASILGMLQLGADGKTKKQLSTVMRYNVNGVGKVLKKINKAIVSKKNKDIVTVANAVFLRNGFKMEVPFAVRNKDVFQCEVQNVNFQDPASASESINFWVKNETRGMIDNLLSPNLIDGALTRLVLVNAVYFKGLWKSRFQPESTKKRTFVAGDGKSYQVPMLAQLSVFRSGSTRTPNGLWYNFIELPYHGESISMLIALPTESSTPLSAIIPHITTKTIDSWMNTMVPKRMQLVLPKFTAVAQTDLKEPLKALGITEMFEPSKANFTKITRSESLHVSHILQKAKIEVSEDGTKASAATTAILIARSSPPWFIVDRPFLFSIRHNPTGAILFLGQVNKP
